Reference: paper PMC2562983
Results are given in words; binding and its absence hold for the method and conditions named. Binding seen in cells or lysates may run through a third protein. For some assays here: Binding can be weak; no strength is given. Each block holds one molecule with its values, some of them ahead of it.

The chains behind the UniProt entries cited, without tags or fusion partners. Where a name states a change or a piece, a line headed by the entry shows the natural chain unless it says otherwise.
UniProt P63331: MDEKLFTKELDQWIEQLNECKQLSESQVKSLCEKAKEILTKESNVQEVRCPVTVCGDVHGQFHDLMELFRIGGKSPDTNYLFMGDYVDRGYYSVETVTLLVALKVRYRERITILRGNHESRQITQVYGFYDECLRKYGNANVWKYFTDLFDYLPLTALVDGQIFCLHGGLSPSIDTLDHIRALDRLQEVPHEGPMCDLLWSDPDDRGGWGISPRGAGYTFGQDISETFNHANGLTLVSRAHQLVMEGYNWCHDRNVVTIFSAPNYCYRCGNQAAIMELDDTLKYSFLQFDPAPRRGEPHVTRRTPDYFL

Tests used:
[1] = molecular target: T1, p107 (rat (endogenous in RCS)) (UniProt D3ZS28); experiment: co-IP; as a1, but lysates of RCS cells after 6 hours of FGF treatment
T1 sequence: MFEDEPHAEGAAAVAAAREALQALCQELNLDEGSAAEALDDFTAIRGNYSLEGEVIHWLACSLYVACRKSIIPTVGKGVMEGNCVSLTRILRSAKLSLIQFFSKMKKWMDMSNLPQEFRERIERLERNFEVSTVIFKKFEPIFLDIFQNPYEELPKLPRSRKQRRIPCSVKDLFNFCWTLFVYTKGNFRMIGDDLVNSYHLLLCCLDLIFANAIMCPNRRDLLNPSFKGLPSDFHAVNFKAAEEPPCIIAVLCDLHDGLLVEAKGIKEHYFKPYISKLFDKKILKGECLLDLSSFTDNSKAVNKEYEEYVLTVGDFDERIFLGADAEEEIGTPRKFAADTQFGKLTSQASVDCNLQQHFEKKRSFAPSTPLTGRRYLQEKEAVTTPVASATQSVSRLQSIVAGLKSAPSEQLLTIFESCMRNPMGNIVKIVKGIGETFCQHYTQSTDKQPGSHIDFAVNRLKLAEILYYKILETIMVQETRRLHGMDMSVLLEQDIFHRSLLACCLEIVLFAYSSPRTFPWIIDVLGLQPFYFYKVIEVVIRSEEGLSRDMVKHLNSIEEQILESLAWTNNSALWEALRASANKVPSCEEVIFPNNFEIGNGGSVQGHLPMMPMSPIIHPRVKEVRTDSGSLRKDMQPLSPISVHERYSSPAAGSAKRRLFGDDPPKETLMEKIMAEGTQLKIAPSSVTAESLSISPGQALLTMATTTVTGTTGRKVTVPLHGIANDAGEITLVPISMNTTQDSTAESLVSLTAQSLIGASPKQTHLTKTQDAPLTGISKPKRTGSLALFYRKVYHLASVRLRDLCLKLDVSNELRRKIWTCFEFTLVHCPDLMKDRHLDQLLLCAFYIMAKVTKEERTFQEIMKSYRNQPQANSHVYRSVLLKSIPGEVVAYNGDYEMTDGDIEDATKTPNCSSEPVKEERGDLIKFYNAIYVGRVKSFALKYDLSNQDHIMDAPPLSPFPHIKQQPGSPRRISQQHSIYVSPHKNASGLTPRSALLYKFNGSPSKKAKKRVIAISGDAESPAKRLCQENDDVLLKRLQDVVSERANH

[2] = molecular target: T1, p107 (rat (endogenous in RCS)); experiment: co-IP; endogenous proteins; lysates (modified RIPA without NaF, 1 mg total protein) of RCS cells treated with FGF1 (5 ng/ml) and heparin for the indicated times; IP with anti-PP2A-C (protein A-Sepharose) or agarose-conjugated anti-p107; Western blot with anti-PP2A-C, anti-PP2A-A or anti-p107
[3] = molecular target: T1, p107 (rat (endogenous in RCS)); experiment: co-IP; as a1, but lysates of RCS cells not treated with FGF
[4] = molecular target: PP2A catalytic C subunit (rat (endogenous in RCS)) (UniProt P63331); experiment: co-IP; endogenous proteins; lysates (modified RIPA without NaF, 1 mg total protein) of RCS cells treated with FGF1 (5 ng/ml) and heparin for the indicated times; IP with anti-PP2A-C (protein A-Sepharose) or agarose-conjugated anti-p107; Western blot with anti-PP2A-C, anti-PP2A-A or anti-p107
[5] = molecular target: PP2A catalytic C subunit (rat (endogenous in RCS)) (UniProt P63331); experiment: co-IP; as a1, but lysates of RCS cells not treated with FGF

binding [1]: binds weakly
binding [2]: binds
Molecule: PP2A catalytic C subunit (from UniProt P63331) (enzyme)
binding [3]: no binding (only cells not treated with FGF)

binding [1]: binds weakly
binding [2]: binds
Molecule: PP2A scaffolding A subunit (PR65) (rat (endogenous in RCS))
binding [3]: no binding (only cells not treated with FGF)

binding [4]: binds
B1: p107 (protein, UniProt D3ZS28 1-1049)
chain: T1 sequence
binding [5]: no binding (only cells not treated with FGF)
